Results from patent US10801050B2, “Microorganism modified for the assimilation of levulinic acid” (priority 2015, dated 2020).

System: Ralstonia eutropha DSM428
Assay: Quantitative proteomics of Ralstonia eutropha DSM428 cultivated with or without levulinic acid (nanoLC-MS/MS)
Type: cell-based
Conditions: Ralstonia eutropha DSM428, shake flasks, LB rich medium, nanoLC-MS/MS protein abundance; for % of total proteins Without LA: 0 g/L levulinic acid; for % of total proteins With LA: 5 g/L levulinic acid

B1: RPOA_CUPNH (protein, UniProt Q0K645 1-326, looked up)
DNA-directed RNA polymerase …: MQTALLKPKIIAVEPLGDHHAKVVMEPFERGYGHTLGNALRRVLLSSMVGYAPTEVTIAGVVHEYSTIDGVQEDVVNLLLNLKGVVFKLHNRDEVTVSLRKDGEGVVTAADIELPHDVEIINPNHVIAHLSAGGKLDMQIKVEQGRGYVPGNVRKFGDESGKVIGRIVLDASFSPVRRVSYAVESARVEQRTDLDKLVMNIETDGVISPEEAIRQSARILVDQLSVFAALEGTESAAEAASSRTPQIDPILLRPVDDLELTVRSANCLKAENIYYIGDLIQRTENELLKTPNLGRKSLNEIKEVLASRGLTLGMKLENWPPAGLEK
% of total proteins Without LA: 1.12 % of total proteins | % of total proteins With LA: 1.07 % of total proteins

B2: RPOC_CUPNH (protein, UniProt Q0K607 1-1415, looked up)
DNA-directed RNA polymerase …: MKALLDLFKQVQQEEQFDAIKIGLASPEKIRSWSYGEVKKPETINYRTFKPERDGLFCAKIFGPIKDYECLCGKYKRLKHRGVICEKCGVEVTLAKVRRERMGHIELAAPTAHIWFLKSLPSRLGMVLDMTLRDIERVLYFEAFVVIEPGMTPLKKSQIMSEDDYLAKCDEYGEGEFVAMMGAEGIRELLRGIDIEKQIEQIRAELQATGSEAKIKKFAKRLKVLEAFQRSGIKPEWMILEVLPVLPPELRPLVPLDGGRFATSDLNDLYRRVINRNNRLKRLLELKAPEIIVRNEKRMLQEAVDSLLDNGRRGKAMTGANKRPLKSLAEMIKGKGGRFRQNLLGKRVDYSGRSVIVVGPTLKLHQCGLPKLMALELFKPFIFHKLETMGIATTIKAAKKEVESQTPVVWDILEEVIREHPVMLNRAPTLHRLGIQAFEPVLIEGKAIQLHPLVCAAFNADFDGDQMAVHVPLSLEAQMEARTLMLASNNVLFPANGDPSIVPSQDVVLGLYYTTRDKINGRGEGMTFADISEVIRAYENKEVELASRVNVRITEYELVDKDAEGDARFAPKITLQATTVGRAILSEILPKGLPFSVLNKPLKKKEISRLINTAFRKCGLRETVIFADKLLQSGFRLATRAGISIAIDDMLVPPQKEKIIAEASAKVKEYDKQYMSGLVTDQERYNNVVDIWGAAGDQVGKAMMEQLQHEDVVDREGKTVKQESFNSIYMMADSGARGSAAQIRQLAGMRGLMAKPDGSIIETPITANFREGLNVLQYFISTHGARKGLADTALKTANSGYLTRRLVDVTQDLVVVEDDCGTSNGVAMKALVEGGEVIEALRDRILGRVTVADVVNPETQETAIEAGTLLDEDLVELIDNIGVDEVKVRTPLSCDTRYGLCGKCYGRDLGRGVLVNSGEAVGVIAAQSIGEPGTQLTMRTFHIGGAASRAAVASSVEAKATGTVRFTATMRYVTNAKGELIVISRSGEALITDDHGRERERHKIPYGATLLVQDGQAIKAGTQLATWDALTRPIVSEYTGTTKFENVEEGVTVAKQMDEVTGLSTLVVIDAKRRTAATKGIRPQVKLLDANGQEVKIPGTDHSVTIGFQVGALITVKDGQQVHVGEVLARIPTESQKTRDITGGLPRVAELFEARSPKDAAVLAEVTGTTSFGKDTKGKQRLVITDLDGNAHEFLIAKEKQVLVHDGQVVNKGEMIVEGPADPHDILRLKGIEELAHYIVDEVQDVYRLQGVKINDKHIEVIVRQMLRRVQIADVGDTKFIPGEQVERSELLDENDRVIAEGKRPATYENLLLGITKASLSTDSFISAASFQETTRVLTEAAIMGKTDDLRGLKENVIVGRLIPAGTGLAYHRARKAREASERERAQAIAEEEQSLFIEPAPVVQATTEGEGDNA
% of total proteins Without LA: 1.75 % of total proteins | % of total proteins With LA: 1.69 % of total proteins

B3: RRF_CUPNH (protein, UniProt Q0KA19 1-186, looked up)
Ribosome-recycling factor: MSVADTKKSVEQKMQKSIEAFKADLAKIRTGRAHTGLLDHVQVDYYGSMVPISQVAAVGLADARTITVQPWEKKMVGAVEKAIRDCDLGLNPATMGEVIRVPMPALTEERRKELTKVVKGEAEGAKVAVRNLRRDANEQFKKLVKDKTISEDDERRGQDEVQKLTDKYVAEIDKMVAEKEKEIMTV
% of total proteins Without LA: 0.27 % of total proteins | % of total proteins With LA: 0.20 % of total proteins

B4: SUCC_CUPNH (protein, UniProt Q0KE75 1-388, looked up)
Succinate--CoA ligase …: MNIHEYQGKEILRKYNVPVPRGIPAFSVDEALKAAETLGGPVWVVKAQIHAGGRGKGGGVKVAKSIDDVKTYASNILGMQLVTHQTGPEGKKVNRLLIEEGADIKKELYVSLVVDRVSQKVALMASSEGGMDIEEVAAHSPEKIHTLIIEPSVGLTDAEADDIARKIGVPDTSVAQARQALQGLYKAFYETDASLAEINPLILTGDGKVIALDAKFNFDSNALFRHPEIVAYRDLDEEDANEIEASKFDLAYISLDGNIGCLVNGAGLAMATMDTIKLFGGEPANFLDVGGGATTEKVTEAFKLMLSNKNVQAILVNIFGGIMRCDVIAEGVISASKAVHLTVPLVVRMKGTNEDLGKKMLADSGLPIISADTMEEAAQKVVAAAAGK
% of total proteins Without LA: 1.19 % of total proteins | % of total proteins With LA: 1.38 % of total proteins

B5: THIL_CUPNH (protein)
chain: MTDVVIVSAARTAVGKFGGSLAKIPAPELGAVVIKAALERAGVKPEQVSEVIMGQVLTAGSGQNPARQAAIKAGLPAMVPAMTINKVCGSGLKAVMLAANAIMAGDAEIVVAGGQENMSAAPHVLPGSRDGFRMGDAKLVDTMIVDGLWDVYNQYHMGITAENVAKEYGITREAQDEFAVGSQNKAEAAQKAGKFDEEIVPVLIPQRKGDPVAFKTDEFVRQGATLDSMSGLKPAFDKAGTVTAANASGLNDGAAAVVVMSAAKAKELGLTPLATIKSYANAGVDPKVMGMGPVPASKRALSRAEWTPQDLDLMEINEAFAAQALAVHQQMGWDTSKVNVNGGAIAIGHPIGASGCRILVTLLHEMKRRDAKKGLASLCIGGGMGVALAVERK
modifications: Uniprot name: THIL_CUPNH. Acetyl-CoA acetyltransferase
% of total proteins Without LA: 1.77 % of total proteins | % of total proteins With LA: 1.46 % of total proteins

B6: TIG_CUPNH (protein, UniProt Q0KBK5 1-451, looked up)
Trigger factor: MSNVIENLGKLDRKVTLAIPKAEVEKEKQERLVRLSKTVKMSGFRPGKVPMKMVEKQYGQQVEFEVRFDKAARKFFDITKEQDVKVAGQPKFEIKNEGVGEDEVAFDATFEVYPEVTIGDLSAAEVTRTGTEITDAEVDKTIDILRKQRVHYHARGEAGEHGDGGADVAAQNGDRVTLDFVGKIDGEEFAGGKAEDFPFVLGEGRMLPEFEQAALGLKVGESKTFPLAFPEDYHGKEVAGKTAEFTVTLKKIEWAHLPEVNDAFAKSLGIADGSVEKMRADIRENLEREVKRRTHSMLKDQVMEALLKASELEVPKALIEQDQERLVEMARRDLEQRGMPNAKDMPIPAEMFAQQAERRVKLGLILAEIVKANGLEAKADQIKAEIEDFAKSYEDPKEVMRWYYGDQQRLAEMEAYVLENNVVNFVCGKAKVTDKKVSFEELTAEGNQQQA
% of total proteins Without LA: 0.51 % of total proteins | % of total proteins With LA: 0.56 % of total proteins

B7: TPIS_CUPNH (protein, UniProt Q0KCT2 1-245, looked up)
Triosephosphate isomerase: MRQKLVIGNWKMHGSLAANAALLEGIKAGAAKATLAVCAPFPYLAQCQALLNGSQVAWGAQDVSAEARGAFTGEVSASMVGEFGCTYVLVGHSERRTYHGETDQTVAAKALRALEFGIVPVVCVGETLAQREAGETEAVVGRQLQAVLDALTVEQLSRVVLAYEPVWAIGTGKTATSEQAQAVHAFLRGQVAARDAGVAERMAILYGGSVKPDNAAELFSMTDIDGGLIGGASLKSADFLAIGNA
% of total proteins Without LA: 0.19 % of total proteins | % of total proteins With LA: 0.14 % of total proteins

B8: DAPD_CUPNH (protein, UniProt Q0KA05 1-275, looked up)
2,3,4,5-tetrahydropyridine-2,6 …: MTQALQALIDQAWEDRTSLSPKSAPNDIREAVANVISQLDSGALRVAEKQGKDWIVNQWIKKAVLLSFRLEDNAPMSAGGFAQFYDKVPTKFANWSADDFAKAGFRVVPPAVARRGSFIAKNAVLMPSYVNIGAYVDEGTMVDTWATVGSCAQIGKNVHLSGGVGIGGVLEPLQANPVIIEDNCFIGARSEVVEGVIVEENSVISMGVYLGQSTKIYDRETGEIHYGRVPAGSVVVAGNLPSKDGKYSLYCAVIVKKVDAQTRAKTSLNDLLRGD
% of total proteins Without LA: 0.25 % of total proteins | % of total proteins With LA: 0.21 % of total proteins
